Experimental data reported in PMC12040169 (PLOS Biology, 2025).
This is one part of the list.

What follows are molecules tested on T1, CTL2-GFP (C. trachomatis L2/434/Bu, GFP-expressing). Conditions: bulk GFP, single well; 28.5 h, 10 µM; inhibitor.
T1 construct: L2/434/Bu, GFP-expressing
Parameters: species or system HeLa; Intracellular C. trachomatis growth in HeLa cells, bulk GFP fluorescence relative to DMSO

| Compound | % of control remaining [%] |
| --- | --- |
| CC(=O)c1c(C)[n+]([O-])c2cc(Cl)c(Cl)cc2[n+]1[O-] [CBK265017] | 100 |
| Sc1nnc(-c2ccncc2)n1/N=C/c1cccnc1 [CBK265336] | 109.68 |
| N[C@@H](Cc1c[nH]c2ccccc12)C(=O)N1CC[C@H]2NC(=O)[C@@H](Cc3ccccc3)NC(=O)C3(C/C=C/C[C@@H]2C1)CCOCC3 [CBK292202] | 112.769 |
| Cc1cc2occ(CC(=O)NC3CCCN(C)C3)c2cc1C (stereo not drawn) [CBK282611] | 103.526 |
| COc1cc(CNC(=O)NC(=O)C2CCN(CCc3cccc(O)c3)CC2)cc(OC)c1OC [CBK034857] | 158.631 |
| CS(=O)(=O)N(Cc1ccccc1)c1ccc(C(=O)Nc2ccccc2C(=O)O)cc1 [CBK264117] | 107.578 |
| Cn1nnc(NC(=O)COc2ccc(C3CCCCC3)cc2)n1 [CBK266442] | 148.283 |
| CNC(=O)c1ccc(-c2ccc3[nH]ccc3c2)nc1N(C)C [CBK106146] | 146.067 |
| Cc1cc2c(cc3c(=O)n(CC(=O)N4CCCC4)nc(C)n32)s1 [CBK284065] | 158.852 |
| O=C(CN1CCN(S(=O)(=O)N2CCCCCC2)CC1)Nc1cc(Cl)ccc1Cl [CBK269587] | 121.292 |
| COCCN(CCOC)Cc1c(C)nc2c(C)c(C)ccc2c1O [CBK265031] | 145.473 |
| CC(C)c1ccc(S(=O)(=O)N(c2ccccc2)C2CCNCC2)cc1 [CBK165088T] | 142.527 |
| O=C(Nc1ccc(N2CCN(Cc3ccccc3)CC2)cc1)c1cncc(Br)c1 [CBK267093] | 197.366 |
| CC(=O)c1cc(CN2CCCOC(Cn3cccn3)C2)cs1 (stereo not drawn) [CBK307365] | 105.033 |
| CN1CCN(C(=O)CNS(=O)(=O)c2ccc3ccccc3c2)CC1 [CBK042205] | 113.473 |
| O=C(CSCc1cccc(Cl)c1)Nc1cccnc1 [CBK264114] | 84.9595 |
| CC(=O)Oc1ccc(N2C(=O)CCSC2=S)cc1 [CBK005283] | 121.453 |
| CCC1CCCCN1C(=O)c1cncc(Br)c1 (stereo not drawn) [CBK076699] | 108.48 |
| C=CCn1c(Cc2csc(NC(=O)c3cnc(C)cn3)n2)n[nH]c1=S [CBK295319] | 140.615 |
| c1ccc2c(c1)CCN(Cc1ncc[nH]1)C2 [CBK126402] | 131.274 |
| O=C(NCc1ccco1)C1(c2ccccc2)CCCC1 [CBK149539] | 104.254 |
| O=S(=O)(c1cc(Cl)sc1Cl)N1CCCCC1CO (stereo not drawn) [CBK051422] | 125.209 |
| COc1ccc(CC(C(=O)Nc2ccc3nc[nH]c(=O)c3c2)c2ccccc2)cc1 (stereo not drawn) [CBK285863] | 128.003 |
| CC12CCC(C(=O)O)(c3nc4c(ccc5ncccc54)nc31)C2(C)C (stereo not drawn) [CBK269470] | 131.884 |
| O=C(NC1CCCC1)c1ccncc1 [CBK143916] | 54.3477 |
| C[C@H](Nc1nccnc1-c1ccco1)c1ccccc1 [CBK037032] | 175.851 |

| Compound | % of control remaining [%] |
| --- | --- |
| O=C(COc1ccccc1Cl)N/N=C/c1ccc(-c2ccccc2[N+](=O)[O-])o1 [CBK262782] | 94.0818 |
| COc1ccc(Sc2nc3ccccc3nc2C(F)(F)F)cc1OC [CBK093779] | 159.327 |
| COc1ccc(NC(=O)c2ccc(-c3cnc(Nc4ccc(N5CCOCC5)cc4)c4nccn34)cc2)cc1 [CBK091240] | 182.182 |
| COc1ccc(NC(=O)CSCc2cc(O)[nH]n2)cc1 [CBK268417] | 101.082 |
| Cc1cc(CNS(=O)(=O)N2CCCC2)c2[nH]c(C)c(C)c2c1 [CBK282772] | 119.542 |
| Cc1noc(C)c1CC(=O)N1CCC(c2ccccc2)C1 (stereo not drawn) [CBK281959] | 153.734 |
| c1ccc(COc2nccnc2-c2ccccc2)cc1 [CBK106686] | 146.672 |
| Cn1c(=O)c2c(nc(SCC(=O)CSc3nc4c(c(=O)n(C)c(=O)n4C)n3C)n2C)n(C)c1=O [CBK267692] | 148.798 |
| CN(C)[C@@H]1CN(Cc2ccccn2)C[C@H]1c1cn(C)c2ccccc12 [CBK284582] | 93.0562 |
| O=C(CCc1ccccc1)NNC(=O)C1CC1c1ccccc1 (stereo not drawn) [CBK261292] | 98.4072 |
| COc1nccnc1OC1CCN(CCc2c[nH]c3ccccc23)CC1 [CBK084261] | 108.671 |
| O=C1CC(c2ccccc2)c2c(n3ncnc3[nH]c2=O)N1 (stereo not drawn) [CBK287912] | 128.494 |
| COc1cc2c(cc1OC)C(c1ccc(C(=O)O)cc1)NCC2 (stereo not drawn) [CBK286738] | 106.59 |
| O=S(=O)(c1ccc(-c2ccccc2)cc1)N1CCCN(CCCO)CC1 [CBK063043] | 124.982 |
| Cc1cccc(-c2ccc(CC3(C(N)=O)CCN(C(=O)COc4ccccc4)CC3)cc2)c1 [CBK285797] | 119.495 |
| CC(C)(C)c1ccc(C(=O)N2CCC3(CC2)CC(=O)N(Cc2ccc(S(C)(=O)=O)cc2)C3=O)cc1 [CBK155018] | 99.6907 |
| CC(C)[C@@H](CO)Nc1nc(-c2occc2C=O)cnc1N [CBK063733] | 223.275 |
| CS(=O)(=O)c1ccc(-c2ccc(COC3CCN(C(=O)Cc4cccc(C(F)(F)F)c4)CC3)cn2)cc1 [CBK162231T] | 86.0671 |
| NCCCN(Cc1ccco1)C1CCCC1 [CBK268856] | 98.2147 |
| CCc1c(C(=O)NC(C)c2cccc(Cl)c2)cnc2cc(O)nn12 (stereo not drawn) [CBK291243] | 126.142 |
| Cc1ccc(OCc2nc(C)c(C(=O)N3CCCC(C)C3)s2)cc1 (stereo not drawn) [CBK305356] | 101.675 |
| CC(C)C(CNCc1cncnc1)c1ccnn1C (stereo not drawn) [CBK304190] | 134.632 |
| CN1CCC(Cc2nc(-c3ccc(Cl)s3)n(CCO)n2)CC1 [CBK307025] | 123.205 |
| N#CCCCN1CCC(Oc2nccnc2OCc2cccnc2)CC1 [CBK083171] | 111.998 |
| COc1ccc(N2C(=O)c3ccc(C(=O)OCC(=O)c4ccccc4Cl)cc3C2=O)c([N+](=O)[O-])c1 [CBK265514] | 123.332 |
| O=C1COc2ccccc2C/C=C/CC2(CCN(C(=O)c3n[nH]c4ccccc34)CC2)CN1 [CBK292021] | 125.278 |

Sorted by SMILES length (low to high): four of the compounds above.

| Compound | % of control remaining [%] |
| --- | --- |
| CC(C)[C@@H](CO)Nc1nc(-c2occc2C=O)cnc1N [CBK063733] | 223.275 |
| CCc1c(C(=O)NC(C)c2cccc(Cl)c2)cnc2cc(O)nn12 (stereo not drawn) [CBK291243] | 126.142 |
| CN(C)[C@@H]1CN(Cc2ccccn2)C[C@H]1c1cn(C)c2ccccc12 [CBK284582] | 93.0562 |
| Cc1cccc(-c2ccc(CC3(C(N)=O)CCN(C(=O)COc4ccccc4)CC3)cc2)c1 [CBK285797] | 119.495 |

(cont.)

| Compound | % of control remaining [%] |
| --- | --- |
| CCCc1[nH]nc(O)c1Cc1cc(F)ccc1Br [CBK075031] | 104.114 |
| O=C(c1ccc(-c2nccnc2NCC2CC2)cc1)N1CCOCC1 [CBK036814] | 107.334 |
| O=C1C=C(N2CCC(CCC3CCN(C4=CC(=O)CCC4)CC3)CC2)CCC1 [CBK007126] | 133.456 |
| O=C(O)CSc1nc2ccccc2n1Cc1ccccc1 [CBK262411] | 107.532 |
| O=[N+]([O-])c1ccc(CN2CCC(Oc3cncc(OCc4ccc(Cl)c(Cl)c4)n3)C2)cc1 (stereo not drawn) [CBK084426] | 99.1941 |
| COc1ccc2nc(-c3cccc(NC(=O)c4ccc(F)cc4)c3)cn2n1 [CBK287826] | 122.853 |
| CC1CC(C)CN(C(=O)Cn2c(=O)n(C)c3ncccc32)C1 (stereo not drawn) [CBK283794] | 151.466 |
| COC1CCN(C2CCc3c(Cl)cc(Cl)cc32)CC1 (stereo not drawn) [CBK304883] | 120.126 |
| CN(C)CC1COc2ccccc2CN1C(=O)Cc1ccccc1F (stereo not drawn) [CBK285080] | 121.795 |
| OC[C@]1(c2ccccc2)CC[C@H](N2CCCC2)CC1 [CBK016010] | 127.079 |
| CCCC1CN(C)c2ccccc2C1=O (stereo not drawn) [CBK023527] | 135.985 |
| COc1ccc(CCC(=O)NCC(c2cccs2)N2CCOCC2)cc1 (stereo not drawn) [CBK304674] | 90.724 |
| O=S(=O)(c1ccccc1)N(Cc1cc2ccccc2nc1O)CC1CCCO1 (stereo not drawn) [CBK269424] | 104.928 |
| CC(C)c1noc([C@@H]2Cc3[nH]cnc3CN2C(=O)Nc2ccccc2)n1 [CBK288969] | 120.241 |
| C=CCNC(=O)N[C@H]1CCN2C(=O)c3ccccc3NC(=O)[C@@H]2C1 [CBK289568] | 100.32 |
| COC(=O)c1c(C)oc2cc(Br)c(OCC(=O)c3ccc(Cl)cc3)cc12 [CBK264946] | 126.266 |
| Cc1ccnc(NCC2CCN(Cc3cc(=O)n4ccccc4n3)C2)c1 (stereo not drawn) [CBK306003] | 107.118 |
| COc1ccc(/C(N)=N/OC(=O)Cc2ccc(Cl)cc2)cc1OC [CBK263272] | 138.308 |
| O=C(N[C@H]1CCCC[C@H]1N1CCCC1)N[C@H]1CCCC[C@H]1N1CCCC1 [CBK003419] | 120.182 |
| Cc1ccnc(NS(=O)(=O)c2ccc(NC(=O)c3cc(-c4ccc(Br)cc4)nc4ccccc34)cc2)n1 [CBK263650] | 100 |
| CN1CCC[C@@H]2[C@H]1[C@@H](c1ccc(F)cc1)CN2C(=O)c1ccccn1 [CBK283081] | 120.533 |
| COc1ccc(-n2ncc(-c3cccc(C(F)(F)F)c3)n2)cn1 [CBK112678] | 134.608 |
| COc1cccc(CN(Cc2ccco2)Cc2cnc(C)n2C)c1 [CBK282494] | 99.1899 |
| CCCOc1cccn2c(N(CC(=O)N(C)C)C(C)=O)c(CC)nc12 [CBK147850] | 102.481 |
| NS(=O)(=O)c1ccc(NS(=O)(=O)c2ccc(NC(=O)Nc3ccc(Cl)cc3)cc2)cc1 [CBK264902] | 81.9123 |
| CC(CC(=O)NC(c1ccc(F)cc1)c1nccn1C)n1cccn1 (stereo not drawn) [CBK281454] | 117.942 |
